Molecular target: T1, ClC-7 (Rattus norvegicus, UniProt P51799)
T1 construct: gene Clcn7; wt rat ClC-7 with C-terminal EGFP fusion; with Ostm1 (mouse)
T1 sequence (P51799 1-803): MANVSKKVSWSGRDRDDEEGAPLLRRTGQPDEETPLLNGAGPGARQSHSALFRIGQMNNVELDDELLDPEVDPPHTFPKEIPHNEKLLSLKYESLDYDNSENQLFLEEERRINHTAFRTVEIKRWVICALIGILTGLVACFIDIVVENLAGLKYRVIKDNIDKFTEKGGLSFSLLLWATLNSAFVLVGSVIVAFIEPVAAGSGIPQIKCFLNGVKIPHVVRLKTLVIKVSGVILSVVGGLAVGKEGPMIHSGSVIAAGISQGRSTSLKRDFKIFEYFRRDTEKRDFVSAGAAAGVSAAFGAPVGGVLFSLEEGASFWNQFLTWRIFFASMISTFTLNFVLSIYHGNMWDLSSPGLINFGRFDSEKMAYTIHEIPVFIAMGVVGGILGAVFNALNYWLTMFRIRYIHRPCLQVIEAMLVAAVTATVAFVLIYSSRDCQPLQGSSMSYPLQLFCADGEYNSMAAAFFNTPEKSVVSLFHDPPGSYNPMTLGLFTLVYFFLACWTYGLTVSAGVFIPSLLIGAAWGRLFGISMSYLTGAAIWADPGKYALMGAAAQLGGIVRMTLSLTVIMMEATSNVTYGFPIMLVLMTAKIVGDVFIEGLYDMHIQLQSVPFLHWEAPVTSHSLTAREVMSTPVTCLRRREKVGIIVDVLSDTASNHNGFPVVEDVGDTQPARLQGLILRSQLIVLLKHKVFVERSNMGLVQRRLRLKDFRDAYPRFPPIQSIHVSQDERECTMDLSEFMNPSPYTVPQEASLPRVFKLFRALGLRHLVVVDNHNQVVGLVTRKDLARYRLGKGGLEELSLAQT
T1 sequence (Q8BGT0 35-338 partner): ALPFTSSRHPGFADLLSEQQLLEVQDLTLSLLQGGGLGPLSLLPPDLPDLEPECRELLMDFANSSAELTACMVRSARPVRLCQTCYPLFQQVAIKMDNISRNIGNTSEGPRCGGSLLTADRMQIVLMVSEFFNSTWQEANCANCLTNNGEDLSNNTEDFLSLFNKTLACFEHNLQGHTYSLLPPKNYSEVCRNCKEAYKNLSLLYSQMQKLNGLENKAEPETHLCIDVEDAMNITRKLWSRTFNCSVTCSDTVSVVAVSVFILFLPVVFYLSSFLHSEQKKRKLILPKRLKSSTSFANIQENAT
Assay: SSM-based electrophysiology on lysosomal membrane fraction of CHO cells, […] NaCl jump
Assay type: biochemical

IC50: 650 µM
Structure (SMILES): NS(=O)(=O)c1cc(C(=O)O)c(NCc2ccco2)cc1Cl [compound 4, Furosemide]

Source: paper PMC2935355, “The G215R Mutation in the Cl^−/H^+-Antiporter ClC-7 Found in ADO II Osteopetrosis Does Not Abolish Function but Causes a Severe Trafficking Defect” (PLoS ONE, 2010)
